Measurements reported in PubChem BioAssay AID720505 (Drosophila RNAi Screening Center, 2013).

Test: 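Genes needed for store-operated calcium entry in fly cells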 (primary screen)
System: Drosophila S2R+ cells
Reagent: long dsRNA against Drosophila genes
Challenge: thapsigargin (2 µM) in calcium-free buffer to empty internal stores, then 2 mM calcium added back
Measurement: 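Fluo-4 signal in 384-well plates read on a FLIPR after thapsigargin (2 µM, calcium-free) store depletion and 2 mM calcium add-back; unnormalised mean endpoint per well; screen run twice, selected wells retested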
Reading the numbers: calcium signal and retest calcium signal: higher = more calcium entry after store depletion
Call rule: 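About 1500 genes called as lowering calcium entry, by varying amounts, judged against per-plate control wells with STIM1 as positive and Rho1 as negative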
Calls: active = called as lowering calcium entry; inactive = not called
The screen tested about 20,000 reagents; this is a random part of those with a known target gene and a result. Over the whole deposit, about 2,100 (10%) are marked active. 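Raw plate signals without normalisation; calls rest on control-based scores that were not deposited; replicate 2 separates called from uncalled poorly.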 Entries without a mark were called inactive. A plus sign joins genes that one reagent is predicted to hit. Not stated in the record: the amount of reagent, the time to read-out.

gene knocked down	PubChem SID	calcium signal, replicate 1	calcium signal, replicate 2	retest calcium signal, replicate 1	retest calcium signal, replicate 2
Spn77Bb + Spn77Bc	SID104190481	74.4	172		
Spn77Bb + Spn77Bc	SID104191585	85	186		
S-Lap5	SID104186524	93.9	184		
Gr47b	SID104185067	112	162		
Cpr78Cb	SID104191639	72.9	163		
dyl	SID104188258	92.4	88.5		
dyl	SID104188259	106	135		
CG30403	SID104183681	119	124	172	134
Ugt302C1	SID104195145	123	158		
CG18265	SID104190102	91	208		
CG12123	SID104197610	145	70.3		
Eo	SID104199979	72.9 (active)	152		
SamDC	SID104183221	96	74.9		
CG3793	SID104181774	78	83.5		
ex	SID104180609	84.5	212		
CG12861	SID104185993	104	162		
CG12861	SID104201572	99.5	215		
indra	SID104188350	157	116		
Sf3a2	SID104189593	90.2	80.4		
Orc5	SID104183182	122	106		
GILT1	SID104196357	107	166		
CG34331	SID104200471	68.7 (active)	186		
Grip128	SID104199959	128	119		
Lrpprc2	SID104198397	51.2 (active)	77.2		
CG14958	SID104188209	58.6	117		
Bruce	SID104195807	167	84.2		
CR43999 (retired record)	SID104194397	126	131		
CG10631	SID104181873	97.1	105		
CG32264	SID104187959	88.8	122		
CG32264	SID104187961	102	93.7		
CG32264	SID104188077	104	109	114	86.7
CG32264	SID104188229	88.5	155		
Hand	SID104182448	179	183		
brm	SID104191122	87.2 (active)	67.5		
dpr5	SID104195558	165	127		
Brr2	SID104190351	93	69.3		
CG14810	SID104197753	131	155		
CG17618 (retired record) + CG45049	SID104195955	205	145		
CG17618 (retired record) + CG45049	SID104201630	91	188		
CG17618 (retired record) + CG45049	SID104202532	70.5	106		
Ppa	SID104184390	140	142		
CtsL2	SID104186770	208	159		
CAH13	SID104185920	147	165		
flip	SID104192118	99.3	197		
qless	SID104194895	140	129		
qless	SID104195299	149	131		
TwdlJ	SID104195604	68.4 (active)	83.6		
CG10793	SID104197552	97	115		
CG9801	SID104196360	112	117		
Plod	SID104190393	135	137		
Plod	SID104190394	84.7	86.7		
CG3323	SID104198095	58.8 (active)	267		
CG6738	SID104195896	175	124		
CG43084	SID104189790	73.1	151		
RpS14a	SID104198502	53.7 (active)	116		
CG6788 + CR32496	SID104201624	128	210		
Ccdc58 + CG34116	SID104189897	121	116		
CG13192	SID104186109	99.8	142		
Eph	SID104196956	93.5	150		
tow	SID104189984	80.9	52.2		
tow	SID104202482	94.2	166		
Girdin	SID104188084	88.3	113		
PGRP-LC	SID104190208	70.1	113		
PGRP-LC	SID104190209	90.6	127		
Rox8	SID104196621	259	177		
Sec23	SID104192179	133	101	123	143
CrebB	SID104200024	96.3	126		
CG7912	SID104196135	179	116		
Tis11	SID104200085	158	94.1		
Tis11	SID104202467	160	170		
CG11882	SID104194217	61.9 (active)	98.5		
Pp1alpha-96A	SID104196587	212	143		
Pp1alpha-96A	SID104202677	104	154		
Naa30B	SID104188037	109	96.1		
Fem-1	SID104187114	67.1	91.7		
CG32241	SID104187892	5206	113		
CG32241	SID104201238	170	125		
CG17508	SID104187563	83.9	149		
CG12655	SID104200470	173	119		
gbb	SID104184479	99.5	196		
Phb2	SID104186304	44.6 (active)	145		
Ms	SID104195833	279	241		
kel	SID104183346	84.1	113		
